From US20200325178A1, “PEPTIDE NUCLEIC ACID MOLECULES FOR TREATMENT OF GRAM POSITIVE BACTERIAL INFECTION” (priority 2017, published 2020)
Some entries share one result that the patent states for a list of compounds.

Assay: Single ascending intravenous dose tolerability (MTD) in mice
Format: in vivo
Experimental: Single ascending intravenous (IV) dose study was performed to determine tolerability of the drug in mice.
Initially, Compound I-HCl and Compound IV-HCl were administered with a 10 mg/kg intravenous bolus dose using a 10 mL/kg dose volume (0.2 mL) and observed the effects before proceeding to the next higher dose. […] However, higher concentration (>15 mg/kg) had shown adverse effect and death in mice within 30 mins of administration of the drug.

Substance | dose showing adverse effect and death in mice within 30 mins of administration [mg/kg]
Compound I: PNA-CPP conjugate: PNA cgt cat acg cgg tcc (SEQ ID NO: 51), AEEA linker, CPP BXRXRRXRRXRRXR; FIG. 1 (CGTCATACGCGGTCC; all peptide nucleic acid (PNA); cell-penetrating peptide attached via AEEA linker, further chemistry not fully specified) | > 15
Compound IV: PNA-CPP conjugate: PNA SEQ ID NO: 51, AEEA linker, homo-arginine CPP BXhRXhRhRXhRhRXhRhRXhR; FIG. 4 (CGTCATACGCGGTCC; all peptide nucleic acid (PNA); homo-arginine cell-penetrating peptide attached via AEEA linker, further chemistry not fully specified) | > 15
